30 compounds from PubChem BioAssay AID1487 (National Center for Advancing Translational Sciences (NCATS), 2009) can be followed below.

SMILES strings stand for the structures. Where “and” joins values, the source holds several entries; their conditions need not be identical. Equal values may be shown once. Some of the results follow. Further columns of the screen follow, without active or inactive calls. The list favours compounds with an active or inconclusive main result. The note in brackets gives the kind of curve behind each potency; many fits are weak.

This assay in a line: qHTS Assay for Modulators of Lamin A Splicing. As to conditions: HeLa LMNA splicing GFP/RFP minigene ratio, 48 h. In outline:
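S3 HeLa stable clones carrying a lamin A-EGFP splicing minigene plus DsRed2 were seeded at 600 cells/well in Opti-MEM with 2% FBS, pin-dosed and incubated 48 h at 37°C. Acumen cytometry (488 nm) gave the GFP/RFP total-intensity ratio.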

The mark [1] stands for this setting: measured here: GFP splicing reporter channel.
Setting [2] is: measured here: RFP viability control channel.

On to `CCn1c(SCc2ccccc2C)nc(=O)c2c(C(=O)OC)cc(C3CC3)nc21`, for which the AC50 (commonly the concentration giving half of the maximal activity seen) runs as follows: under setting [1], 11.2 µM [falling, partial curve, poor fit]; under setting [2], 8.91 µM [falling, partial curve, poor fit].
For `Cc1cccn2c(=O)c3cc(C(=O)NCc4cccnc4)c(=N)n(C(C)C)c3nc12`, the AC50 under setting [2] was 10 µM [rising, partial curve, poor fit].
With `O=C(Nc1nnc(-c2cc(Cl)ccc2Cl)o1)c1ccc2c(c1)OCCO2`, under setting [2], the AC50 is 10 µM [rising, partial curve, poor fit].
As to `COc1ccc(-c2nc(Cn3c(SCc4cccc(F)c4)nc4ccncc43)c(C)o2)cc1OC`, the AC50 under setting [2] was 1.78 µM [rising, partial curve, poor fit].
Turning to `Cc1cccc(NC(=S)N(Cc2cccc(Br)c2)CC2CCC(C(=O)O)CC2)c1` (stereo unspecified), the AC50 under setting [1] is 2.24 µM [rising, partial curve, poor fit].
With `CCOC(=O)C1CCC(CN(Cc2ccc(OC)cc2)S(=O)(=O)c2ccc(F)c(C(=O)Nc3ccc(C)c(C)c3)c2)CC1` (stereo unspecified), under setting [1], the half-maximal activity concentration (AC50) was 0.355 µM [falling, full curve, poor fit].
For `CCCCOc1ccc(C(=O)NNC(=S)NC(=O)CC)cc1`, the concentration at half-maximal activity (AC50) under setting [2] is 5.01 µM [rising, partial curve].
Turning to `FC(F)(F)c1nnc(-c2ccccc2)nc1Sc1ccccc1`, the half-maximal activity concentration (AC50) by setting is: under setting [1], 12.6 µM [falling, single point]; under setting [2], 15.8 µM [falling, partial curve].
For the compound `Cn1nc(-c2ccccn2)nc2c(=O)n(C)c(=O)nc1-2`, the concentration at half-maximal activity (AC50) under setting [2] is 4.47 µM [falling, full curve].
Consider `O=c1nc2n(c3sc4c(c13)CCCC4)C(CBr)CS2` (stereo unspecified), for which the half-maximal activity concentration (AC50) was 10 µM [rising, partial curve, poor fit] under setting [1] and 11.2 µM [rising, single point] under setting [2].
Turning to `CCNc1ccc(S(=O)(=O)N(C)C)cc1[N+](=O)[O-]`, the concentration at half-maximal activity (AC50) under setting [2] was 1.26 µM [falling, full curve, poor fit].
Regarding `CNc1ccc(Br)cc(C(=O)/C=C/c2ccc(OC)cc2OC)c1=O`, the AC50 under setting [1] was 10 µM [rising, single point].
Consider `O=C(Cc1cccs1)NC1C(=O)N2C(C(=O)[O-])=C(C[n+]3ccccc3)CSC12` (stereo unspecified), for which the half-maximal activity concentration (AC50) runs as follows: under setting [1], 4.47 µM [rising, partial curve, poor fit]; under setting [2], 8.91 µM [rising, single point].
For `CN(Cc1cnc2nc(N)nc(N)c2n1)c1ccc(C(=O)N[C@@H](CCC(=O)O)C(=O)O)cc1`, the AC50 is, setting by setting: under setting [1], 0.00447 µM [falling, full curve, poor fit]; under setting [2], 4.47 nM [rising, full curve, poor fit] and 28.2 nM [rising, full curve, poor fit].
Turning to `CCc1ccccc1NC(=O)c1cc(S(=O)(=O)N2CCc3ccccc32)ccc1F`, the concentration at half-maximal activity (AC50) is, setting by setting: under setting [1], 0.00631 µM [falling, full curve, poor fit]; under setting [2], 0.00501 µM [falling, full curve, poor fit].
For `CCCn1c2ccccc2c2cnn(CC(=O)NCC3CCN(Cc4ccc(F)cc4)CC3)c(=O)c21`, under setting [1], the half-maximal activity concentration (AC50) is 35.5 µM [falling, partial curve].
In the case of `COc1cc(C2C(C#N)=C(N)Oc3cc(C)n(CCN4CCOCC4)c(=O)c32)cc(OC)c1OC` (stereo unspecified), the AC50 was 35.5 µM [rising, partial curve, poor fit] under setting [1] and 0.282 µM [rising, partial curve, poor fit] under setting [2].
For `CCOC(=O)/C=C/C(=O)Nc1cccc([N+](=O)[O-])c1`, the half-maximal activity concentration (AC50) under setting [1] was 22.4 µM [falling, partial curve, poor fit].
As to `CCOC(=O)N1CCN(S(=O)(=O)c2ccc(C(=O)NNc3nc4cc(C)cc(C)c4s3)cc2)CC1`, the concentration at half-maximal activity (AC50) under setting [1] is 17.8 µM [falling, single point] and the concentration at half-maximal activity (AC50) under setting [2] was 3.98 µM [rising, full curve].
As to `COc1ccc(NC(=S)Nc2cc(-c3ccccc3)[nH]n2)cc1Cl`, the AC50 under setting [2] was 11.2 µM [rising, partial curve, poor fit].
As to `N[C@@H](Cc1ccc(O)cc1)C(=O)O`, the concentration at half-maximal activity (AC50) is 0.0794 µM [falling, partial curve, poor fit] under setting [1] and 0.000794 µM [rising, full curve, poor fit] under setting [2].
Regarding `O=C(COc1ccc(Cl)cc1)N1CCN(Cc2ccc3c(c2)OCO3)CC1`, the half-maximal activity concentration (AC50) is, setting by setting: under setting [1], 10 µM [falling, partial curve, poor fit]; under setting [2], 10 µM [falling, single point].
As to `CC(=O)N1CCc2cc(S(=O)(=O)NCCC(=O)N3CCN(Cc4ccccc4)CC3)ccc21`, the AC50 under setting [1] was 10 µM [rising, partial curve] and the half-maximal activity concentration (AC50) under setting [2] was 15.8 µM [rising, partial curve].
On to `COCCN(C(=O)CCCC(=O)Nc1ccccn1)C(C(=O)NC1CCCC1)c1ccc(C)cc1` (stereo unspecified), for which the half-maximal activity concentration (AC50) under setting [1] is 35.5 µM [rising, single point].
Take `CCc1cc2c(C)ccc(C)c2nc1SCC(=O)Nc1c[nH]c(=O)[nH]c1=O`: the AC50 by setting is: under setting [1], 35.5 µM [falling, single point]; under setting [2], 35.5 µM [falling, single point].
In the case of `CCN(CC)CCNc1ccc(CO)c2sc3ccccc3c(=O)c12`, the AC50 is, setting by setting: under setting [1], 11.2 nM [falling, full curve, poor fit] and 35.5 µM [falling, partial curve, poor fit]; under setting [2], 8.91 nM [falling, full curve, poor fit] and 11.2 µM [rising, partial curve].
As to `CCOc1ccccc1NC(C)C(=O)Nc1cc(C(F)(F)F)ccc1N1CCOCC1` (stereo unspecified), the AC50 under setting [1] is 35.5 µM [rising, single point] and the AC50 under setting [2] was 35.5 µM [rising, single point].
Take `Cc1ccc(F)cc1NC(=O)CCc1c(C)nn(-c2ccc(N3CCOCC3)nn2)c1C`: the AC50 under setting [2] is 0.891 µM [falling, full curve, poor fit].
`C/C(=N\NC(=O)c1cccs1)c1cccnc1`: the AC50 is, setting by setting: under setting [1], 1.26 µM [falling, single point]; under setting [2], 0.891 µM [falling, partial curve].
With `CN1C(=O)C(CC(=O)Nc2ccc(F)cc2)N(Cc2cccs2)C1=S` (stereo unspecified), the AC50 under setting [1] was 35.5 µM [falling, partial curve, poor fit] and the AC50 under setting [2] is 0.891 µM [falling, full curve, poor fit].
